Data on one substance can be found in article PMC4919659 (2016).

For test [1], the target named is T1, mCherry-SARAH_(MST1) (UniProt Q13043).
T1 sequence: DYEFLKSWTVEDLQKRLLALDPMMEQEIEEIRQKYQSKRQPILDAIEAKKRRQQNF
As to the kind of experiment: FRET or BRET; FLIM-FRET in fixed COS7 cells co-transfected with EGFP-labelled donor and mCherry-labelled acceptor; optically sectioned FLIM with a spinning Nipkow disc, 40x objective; monoexponential fit and global double exponential fit (FRET fraction, KD per cell from calibrated intensities). For orientation: In BRET a luciferase serves as donor, and the signal depends on an acceptor being close.

The target of another test is mCherry-MST1 (UniProt Q13043). The test is described as above.
The next test addresses T2, myc-MST1 K59R (UniProt Q13043).
T2 sequence: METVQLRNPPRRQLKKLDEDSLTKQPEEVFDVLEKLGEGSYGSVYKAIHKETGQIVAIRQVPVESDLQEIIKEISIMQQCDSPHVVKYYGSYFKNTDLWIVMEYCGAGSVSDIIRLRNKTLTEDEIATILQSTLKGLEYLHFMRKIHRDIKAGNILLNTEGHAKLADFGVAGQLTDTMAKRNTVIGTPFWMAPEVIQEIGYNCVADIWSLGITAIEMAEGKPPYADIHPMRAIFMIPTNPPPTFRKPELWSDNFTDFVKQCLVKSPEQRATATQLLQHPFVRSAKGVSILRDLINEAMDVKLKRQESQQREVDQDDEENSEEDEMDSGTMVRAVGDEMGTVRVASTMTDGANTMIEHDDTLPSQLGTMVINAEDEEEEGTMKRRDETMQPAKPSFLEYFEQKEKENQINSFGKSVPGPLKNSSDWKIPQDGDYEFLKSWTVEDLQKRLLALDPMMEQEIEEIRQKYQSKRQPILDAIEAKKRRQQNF
As to the kind of experiment: co-IP; Anti-c-Myc Immunoprecipitation kit (Sigma) on co-transfected cell lysates; blot with anti-GFP; repeated three times.

The target of test [2] is T1, mCherry-SARAH_(MST1). Briefly: FRET or BRET; FLIM-FRET in fixed COS7 cells co-transfected with EGFP-labelled donor and mCherry-labelled acceptor; 96-well plate, wide-field time-gated FLIM, 10 fields of view per well, EGFP lifetime from a monoexponential fit; shift of at least 32 ps taken as significant.
For another test, the target named is T3, mCherry-MST1ΔSARAH (UniProt Q13043).
T3 sequence: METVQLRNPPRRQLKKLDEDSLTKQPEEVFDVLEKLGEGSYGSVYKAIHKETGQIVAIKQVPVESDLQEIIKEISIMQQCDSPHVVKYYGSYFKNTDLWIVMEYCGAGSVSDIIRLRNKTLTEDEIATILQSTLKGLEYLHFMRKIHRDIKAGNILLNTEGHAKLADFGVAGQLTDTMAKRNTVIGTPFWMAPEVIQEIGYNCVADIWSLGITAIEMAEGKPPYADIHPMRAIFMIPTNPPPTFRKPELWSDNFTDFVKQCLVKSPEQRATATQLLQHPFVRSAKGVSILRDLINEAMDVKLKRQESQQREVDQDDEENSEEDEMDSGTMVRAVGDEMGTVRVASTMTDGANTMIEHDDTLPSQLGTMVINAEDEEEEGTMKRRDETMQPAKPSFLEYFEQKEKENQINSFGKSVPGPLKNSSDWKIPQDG
The description is as above.

No constants are given. Whether binding was seen depends on the method and setting. In cells and extracts the contact can be indirect. For some assays here: A result given as binding can be weak or reduced; the word gives no strength. For some assays here: Sequences can lack the tags named with a protein.

Consider “EGFP-RASSF1 (wild type) (from UniProt Q9NS23-2)”, for which the binding result is given as “binds” in the test with mCherry-SARAH_(MST1) [1]; “binds” with mCherry-MST1; “binds” with myc-MST1 K59R; “binds” with mCherry-SARAH_(MST1) [2]; “no binding” with mCherry-MST1ΔSARAH.
